Results as given in patent US20100234378A1, “ALKYLSULFONAMIDE-SUBSTITUTED TRIAZOLES AS MATRIX METALLOPROTEASE INHIBITORS” (ARRAY BIOPHARMA INC., priority 2006, published 2010).
Where a name gives a salt, the structure may show the parent alone. Some of these results come from one statement about several compounds together. At least one compound was matched to its structure with a doubt left.

These molecules were tested against T1, MMP-13 (baculovirus expressed full-length protein) (Homo sapiens, UniProt P45452) (assay: MMP-13 assay (FRET, quenched-fluorogenic substrate)). Settings: same buffer with 0.5% HSA (Human Serum Albumin) versus without.
T1 construct: made in house; host or cells: baculovirus expression system (insect cells)
Format: biochemical

Row | Compound | shift in activity in the presence of 0.5% HSA [fold]
1 | CC(C)(NS(=O)(=O)c1ccc(-c2cccc(CNC(=O)OCc3ccccc3)c2)cc1)c1cnn[nH]1 [Example 30, Benzyl(4′-(N-(2-(1H-1,2,3-triazol-5-yl)propan-2-yl)sulfamoyl)biphenyl-3-yl)methylcarbamate] | < 20
2 | O=S(=O)(NCc1cnn[nH]1)c1ccc(-n2cc(Cl)cn2)cc1 [Example 7, N-((1H-1,2,3-triazol-5-yl)methyl)-4-(4-chloro-1H-pyrazol-1-yl)benzenesulfonamide] | < 20
3 | COCCOC(=O)NCc1cccc(-c2ccc(S(=O)(=O)NC(C)(C)c3cnn[nH]3)cc2)c1 [Example 26, 2-Methoxy ethyl(4′-(N-(2-(1H-1,2,3-triazol-5-yl)propan-2-yl)sulfamoyl)biphenyl-3-yl)methylcarbamate] | < 20
4 | CC(C)(NS(=O)(=O)c1ccc(-c2ccc(NC(=O)c3ccc(F)c(F)c3)cc2)cc1)c1cnn[nH]1 [Example 28, N-(4′-(N-(2-(1H-1,2,3-triazol-5-yl)propan-2-yl)sulfamoyl)biphenyl-4-yl)-3,4-difluorobenzamide] | < 20
5 | COc1ccc(-c2ccc(S(=O)(=O)NCc3cnn[nH]3)cc2)cc1 [Example 3, N-((1H-1,2,3-triazol-5-yl)methyl)-4′-(methoxy)biphenyl-4-sulfonamide] | < 20
6 | COc1ccc(-c2ccc(S(=O)(=O)NC(c3cnn[nH]3)C(C)C)cc2)cc1 (centres unmarked) [Example 9, 4′-Methoxy-N-(2-methyl-1-(1H-1,2,3-triazol-5-yl)propyl)biphenyl-4-sulfonamide] | < 20
7 | CCOC(=O)NCc1cccc(-c2ccc(S(=O)(=O)NC(C)(C)c3cnn[nH]3)cc2)c1 [Example 35, Ethyl(4′-(N-(2-(1H-1,2,3-triazol-5-yl)propan-2-yl)sulfamoyl)biphenyl-3-yl)methylcarbamate] | < 20
8 | COc1ccc(-c2ccc(S(=O)(=O)NC(C)c3cnn[nH]3)cc2)cc1 (centres unmarked) [Example 8, N-(1-(1H-1,2,3-triazol-5-yl)ethyl)-4′-methoxybiphenyl-4-sulfonamide] | < 20
9 | COc1ccc(-c2ccc(S(=O)(=O)N(C)Cc3c[nH]nn3)cc2)cc1 [Example 12, N-((1H-1,2,3-triazol-4-yl)methyl)-4′-methoxy-N-methylbiphenyl-4-sulfonamide] | < 20
10 | CC(C)OC(=O)NCc1cccc(-c2ccc(S(=O)(=O)NC(C)(C)c3cnn[nH]3)cc2)c1 [Example 32, Isopropyl(4′-(N-(2-(1H-1,2,3-triazol-5-yl)propan-2-yl)sulfamoyl)biphenyl-3-yl)methylcarbamate] | < 20
11 | O=S(=O)(NCc1cnn[nH]1)c1ccc(-c2ccc(Cl)cc2)cc1 [Example 4, N-((1H-1,2,3-triazol-5-yl)methyl)-4′-(chloro)biphenyl-4-sulfonamide] | < 20
12 | O=S(=O)(NCc1cnn[nH]1)c1ccc(-c2ccccc2)cc1 [Example 1, N-((1H-1,2,3-triazol-5-yl)methyl)biphenyl-4-sulfonamide] | < 20
13 | CC(C)(NS(=O)(=O)c1ccc(-c2cccc(CNC(=O)c3cccnc3)c2)cc1)c1cnn[nH]1 [Example 33, N-((4′-(N-(2-(1H-1,2,3-triazol-5-yl)propan-2-yl)sulfamoyl)biphenyl-3-yl)methyl)nicotinamide] | < 20
14 | CC(C)(NS(=O)(=O)c1ccc(-c2cccc(CNC(=O)c3ccc(Cl)cc3)c2)cc1)c1cnn[nH]1 [Example 24, N-((4′-(N-(2-(1H-1,2,3-triazol-5-yl)propan-2-yl)sulfamoyl)biphenyl-3-yl)methyl)-4-chlorobenzamide] | < 20
15 | CC(C)(NS(=O)(=O)c1ccc(-c2cccc(CN)c2)cc1)c1cnn[nH]1 [Example 21, N-(2-(1H-1,2,3-triazol-5-yl)propan-2-yl)-4′-(trifluoromethyl)biphenyl-4-sulfonamide hydrochloride] | < 20
16 | CC(C)(C)OC(=O)NCc1cccc(-c2ccc(S(=O)(=O)NC(C)(C)c3cnn[nH]3)cc2)c1 [Example 20, tert-butyl(4′-(N-(2-(1H-1,2,3-triazol-5-yl)propan-2-yl)sulfamoyl)biphenyl-3-yl)methylcarbamate] | < 20
17 | CC(C)(NS(=O)(=O)c1ccc(-c2cccc(CNC(=O)c3ccncc3)c2)cc1)c1cnn[nH]1 [Example 25, N-((4′-(N-(2-(1H-1,2,3-triazol-5-yl)propan-2-yl)sulfamoyl)biphenyl-3-yl)methyl)isonicotinamide] | < 20
18 | CCC(CC)(NS(=O)(=O)c1ccc(-c2ccc(C(F)(F)F)cc2)cc1)c1cnn[nH]1 [Example 14, N-(3-(1H-1,2,3-triazol-5-yl)pentan-3-yl)-4′-(trifluoromethyl)biphenyl-4-sulfonamide] | < 20

Row | Compound | shift in activity in the presence of 0.5% HSA [fold]
19 | CC(C)(c1cnn[nH]1)N(CCN1CCOCC1)S(=O)(=O)c1ccc(-c2ccc(C(F)(F)F)cc2)cc1 [Example 17, N-(2-(1H-1,2,3-triazol-5-yl)propan-2-yl)-N-(2-morpholinoethyl)-4′-(trifluoromethyl)biphenyl-4-sulfonamide] | < 20
20 | CC(C)(NS(=O)(=O)c1ccc(-c2ccc(NC(=O)c3ccc(Cl)c(Cl)c3)cc2)cc1)c1cnn[nH]1 [Example 29, N-(4′-(N-(2-(1H-1,2,3-triazol-5-yl)propan-2-yl)sulfamoyl)biphenyl-4-yl)-3,4-dichlorobenzamide] | < 20
21 | COCCN(C(C)(C)c1cnn[nH]1)S(=O)(=O)c1ccc(-c2ccc(C(F)(F)F)cc2)cc1 [Example 16, N-(2-(1H-1,2,3-triazol-5-yl)propan-2-yl)-4′-(2-methoxyethyl)-4′-(trifluoromethyl)biphenyl-4-sulfonamide] | < 20
22 | O=S(=O)(NCc1cnn[nH]1)c1ccc(-c2ccc(C(F)(F)F)cc2)cc1 [Example 2, N-((1H-1,2,3-triazol-5-yl)methyl)-4′-(trifluoromethyl)biphenyl-4-sulfonamide] | < 20
23 | CC(C)(NS(=O)(=O)c1ccc(-c2ccc(C(F)(F)F)cc2)cc1)c1[nH]nnc1Br [Example 15, N-(2-(4-bromo-1H-1,2,3-triazol-5-yl)propan-2-yl)-4′-(trifluoromethyl)biphenyl-4-sulfonamide] | < 20
24 | CC(C)(NS(=O)(=O)c1ccc(-c2ccc(C(F)(F)F)cc2)cc1)c1cnn[nH]1 [Example 13, N-(2-(1H-1,2,3-triazol-5-yl)propan-2-yl)-4′-(trifluoromethyl)biphenyl-4-sulfonamide] | < 20
25 | Cc1ccc(-c2ccc(S(=O)(=O)NCc3cnn[nH]3)cc2)cc1 [Example 6, N-((1H-1,2,3-triazol-5-yl)methyl)-4′-(methyl)biphenyl-4-sulfonamide] | < 20
26 | CC(C)Oc1ccc(-c2ccc(S(=O)(=O)NC(C)(C)c3cnn[nH]3)cc2)cc1 [Example 18, N-(2-(1H-1,2,3-triazol-5-yl)propan-2-yl)-4′-isopropoxybiphenyl-4-sulfonamide] | < 20
27 | COc1ccc(-c2ccc(S(=O)(=O)NCc3[nH]nnc3-c3ccccc3)cc2)cc1 [Example 11, 4′-Methoxy-N-((4-phenyl-1H-1,2,3-triazol-5-yl)methyl)biphenyl-4-sulfonamide] | < 20
28 | CC(C)(NS(=O)(=O)c1ccc(-c2cccc(CNC(=O)C3CC3)c2)cc1)c1cnn[nH]1 [Example 22, N-((4′-(N-(2-(1H-1,2,3-triazol-5-yl)propan-2-yl)sulfamoyl)biphenyl-3-yl)methyl)cyclopropanecarboxamide] | < 20
29 | CC(C)(NS(=O)(=O)c1ccc(-c2cccc(CNC(=O)c3ccccc3)c2)cc1)c1cnn[nH]1 [Example 23, N-((4′-(N-(2-(1H-1,2,3-triazol-5-yl)propan-2-yl)sulfamoyl)biphenyl-3-yl)methyl)benzamide] | < 20
30 | CC(C)(NS(=O)(=O)c1ccc(-c2ccc(NC(=O)c3ccccc3)cc2)cc1)c1cnn[nH]1 [Example 27, N-(4′-(N-(2-(1H-1,2,3-triazol-5-yl)propan-2-yl)sulfamoyl)biphenyl-4-yl)benzamide] | < 20
31 | CC(C)(NS(=O)(=O)c1ccc(-c2cccc(CNC(=O)OC3CCCC3)c2)cc1)c1cnn[nH]1 [Example 34, Cyclopentyl(4′-(N-(2-(1H-1,2,3-triazol-5-yl)propan-2-yl)sulfamoyl)biphenyl-3-yl)methylcarbamate] | < 20
32 | CCOc1ccc(-c2ccc(S(=O)(=O)NC(C)(C)c3cnn[nH]3)cc2)cc1 [Example 19, N-(2-(1H-1,2,3-triazol-5-yl)propan-2-yl)-4′-ethoxybiphenyl-4-sulfonamide] | < 20
33 | O=S(=O)(NCc1cnn[nH]1)c1ccc(-c2ccc(F)cc2)cc1 [Example 5, N-((1H-1,2,3-triazol-5-yl)methyl)-4′-(fluoro)biphenyl-4-sulfonamide] | < 20
34 | COc1ccc(-c2ccc(S(=O)(=O)NC(c3ccccc3)c3cnn[nH]3)cc2)cc1 (centres unmarked) [Example 10, 4′-Methoxy-N-(phenyl(1H-1,2,3-triazol-5-yl)methyl)biphenyl-4-sulfonamide] | < 20
35 | CC(C)(NS(=O)(=O)c1ccc(-c2cccc(CNC(=O)c3ccccn3)c2)cc1)c1cnn[nH]1 [Example 31, N-((4′-(N-(2-(1H-1,2,3-triazol-5-yl)propan-2-yl)sulfamoyl)biphenyl-3-yl)methyl)picolinamide] | < 20
